Patent US20120100361A1, “ANTISEPTIC COMPOSITION FOR ENGINEERING WOOD PRODUCTION, AND ENGINEERING WOOD” (SDS BIOTECH K.K., priority 2009, published 2012)
At least one read-out could not be matched to a standard name with certainty.

Key:
[1] = test system: Trametes versicolor; assay: Test for antiseptic effects of preservative plywood (JIS K1571:2004); type: cell-based; conditions: urea melamine resin
Method: (§1) 1000 g of urea melamine resin (PWP-60, manufactured by Oshika Corporation) was added to 180 g of wheat flour and fully kneaded to thereby obtain a kneaded product. 8 g of ammonium chloride was added as a hardening agent to the kneaded product, and a solution of each of the compounds of Example 1 and Comparative Example 1, 2 and 5 to 25 was further added thereto so that the final concentrations of the compound in the wood become 150, 100, 50 and 25 g/m^3 and kneaded. 18 g of the above kneaded product was applied onto each of the bonding plane of the three red lauan veneer sheets having an area of 30 x 30 cm and thickness of 0.85 mm/2.4 mm/0.85 mm. After bonding the three sheets to each other, the sheets were subjected to cold pressing at room temperature for 20 minutes and the thermal pressure of 120° C. (10 kgf/cm^2) was applied to the sheets for two minutes to obtain the target plywood. Each of the prepared plywood was processed into the size of 20×20×4.1 mm to serve as a test sample.
(§2) The samples of the plywood and LVL prepared in Preparation Examples 2 and 3 were evaluated by the test for antiseptic effects for the drug pressure treatment according to JIS K1571:2004. The weather resistance operation and the test method for the antiseptic effect were performed according to the above test method.

[2] = test system: Fomitopsis palustris; assay: as above; type: cell-based; conditions: plywood, urea melamine resin, Fomitopsis palustris
Method: as §1, §2

[3] = test system: fungus cellar soil-bed; assay: Fungus cellar soil-bed test of preservative LVL (JIS K1571:2004); conditions: 25° C., grade 0 sound condition to 5 out of shape due to the decay
Method: (§3) 1000 g of the phenol resin-based glue Deernol D-117 (manufactured by Oshika Corporation), 70 g of wheat flour and 100 g of calcium carbonate were mixed and well kneaded. A solution of each of the compounds of Example 1 and Comparative Example 1, 2 and 5 to 25 was added to the kneaded product so that the final concentrations of the compound in the wood become 150, 100, 50 and 25 g/m^3 and further kneaded. 18 g of the above kneaded product was applied onto each of the surface of glue line of the three Radiata pine veneer sheets having an area of 30 x 30 cm and thickness of 3 mm. After bonding the three sheets to each other, the sheets were subjected to cold pressing at room temperature for 20 minutes and the thermal pressure of 140° C. (10 kgf/cm^2) was applied to the sheets for two minutes to obtain the target LVL. Each of the prepared LVL was processed into the size of 20×20×9 mm to serve as a test sample.
The preservative LVL was prepared in the same manner in Preparation Example 3. Each of the prepared LVL was processed into the size of 9×9×100 mm to serve as a test sample.
(§4) The samples of the plywood and LVL prepared in Preparation Examples 4 and 5 were evaluated by the fungus cellar soil-bed test according to JIS K1571:2004. The weather resistance operation and the test method for the antiseptic effect were performed according to the above test method. The test was carried out for six months setting the test temperature to 25° C. (because the grade average of the decay damage of the non-treated test samples exceeded 2.5 in six months). […] The effect in the glue line treatment was actually investigated with respect to a number of existing antiseptics, and it was confirmed that only epoxyconazole is suitable for the glue line treatment at a low concentration.

[4] = test system: fungus cellar soil-bed; assay: Fungus cellar soil-bed test of preservative plywood (JIS K1571:2004); conditions: 25° C., grade 0 sound condition to 5 out of shape due to the decay
Method: as §1
The preservative plywood was prepared in the same manner in Preparation Example 2. Each of the prepared plywood was processed into the size of 8.9 x 8.9×100 mm to serve as a test sample.
as §4

[5] = test system: Trametes versicolor; assay: Test for antiseptic effects of preservative LVL (JIS K1571:2004); type: cell-based; conditions: phenol resin
Method: as §3, §2

[6] = test system: Fomitopsis palustris; assay: as above; type: cell-based; conditions: phenol resin
Method: as §3, §2

[7] = treated amount 25 g/m^3, six months
[8] = treated amount 50 g/m^3, six months
[9] = treated amount 100 g/m^3, six months
[10] = treated amount 150 g/m^3, six months

Structure (SMILES) | average rate of decrease in weight ([1]; treated amount 25 g/m^3) | average rate of decrease in weight ([1]; treated amount 50 g/m^3) | average rate of decrease in weight ([1]; treated amount 100 g/m^3) | average rate of decrease in weight ([1]; treated amount 150 g/m^3) | average rate of decrease in weight ([2]; treated amount 25 g/m^3) | average rate of decrease in weight ([2]; treated amount 50 g/m^3) | average rate of decrease in weight ([2]; treated amount 100 g/m^3) | average rate of decrease in weight ([2]; treated amount 150 g/m^3) | Grade average of the decay damage of five test samples [3, 7] | Grade average of the decay damage of five test samples [3, 8] | Grade average of the decay damage of five test samples [3, 9] | Grade average of the decay damage of five test samples [3, 10] | Grade average of the decay damage of five test samples [4, 7] | Grade average of the decay damage of five test samples [4, 8] | Grade average of the decay damage of five test samples [4, 9] | Grade average of the decay damage of five test samples [4, 10] | average rate of decrease in weight ([5]; treated amount 25 g/m^3) | average rate of decrease in weight ([5]; treated amount 50 g/m^3) | average rate of decrease in weight ([5]; treated amount 100 g/m^3) | average rate of decrease in weight ([5]; treated amount 150 g/m^3) | other results
C[Si](Cn1cncn1)(c1ccc(F)cc1)c1ccc(F)cc1 [Comparative Example 10, flusilazole] | X (The average rate of decrease in weight was 3% or more.) | X (The average rate of decrease in weight was 3% or more.) | X (The average rate of decrease in weight was 3% or more.) | X (The average rate of decrease in weight was 3% or more.) | X (The average rate of decrease in weight was 3% or more.) | X (The average rate of decrease in weight was 3% or more.) | X (The average rate of decrease in weight was 3% or more.) | X (The average rate of decrease in weight was 3% or more.) | 3.4 | 2.6 | 3.6 | 2.6 | 2.8 | 3.0 | 3.0 | 2.8 | X (The average rate of decrease in weight was 3% or more.) | X (The average rate of decrease in weight was 3% or more.) | X (The average rate of decrease in weight was 3% or more.) | X (The average rate of decrease in weight was 3% or more.) | average rate of decrease in weight ([6]; treated amount 25 g/m^3): X (The average rate of decrease in weight was 3% or more.); average rate of decrease in weight ([6]; treated amount 50 g/m^3): X (The average rate of decrease in weight was 3% or more.); average rate of decrease in weight ([6]; treated amount 100 g/m^3): X (The average rate of decrease in weight was 3% or more.); average rate of decrease in weight ([6]; treated amount 150 g/m^3): X (The average rate of decrease in weight was 3% or more.)
OC(Cn1cncn1)(c1ccc(F)cc1)c1ccccc1F (stereo not drawn) [Comparative Example 11, flutriafol] | X (The average rate of decrease in weight was 3% or more.) | X (The average rate of decrease in weight was 3% or more.) | X (The average rate of decrease in weight was 3% or more.) | X (The average rate of decrease in weight was 3% or more.) | X (The average rate of decrease in weight was 3% or more.) | X (The average rate of decrease in weight was 3% or more.) | X (The average rate of decrease in weight was 3% or more.) | X (The average rate of decrease in weight was 3% or more.) | 3.0 | 3.0 | 3.0 | 3.0 | 3.0 | 2.8 | 3.2 | 2.8 | X (The average rate of decrease in weight was 3% or more.) | X (The average rate of decrease in weight was 3% or more.) | X (The average rate of decrease in weight was 3% or more.) | X (The average rate of decrease in weight was 3% or more.) | average rate of decrease in weight ([6]; treated amount 25 g/m^3): X (The average rate of decrease in weight was 3% or more.); average rate of decrease in weight ([6]; treated amount 50 g/m^3): X (The average rate of decrease in weight was 3% or more.); average rate of decrease in weight ([6]; treated amount 100 g/m^3): X (The average rate of decrease in weight was 3% or more.); average rate of decrease in weight ([6]; treated amount 150 g/m^3): X (The average rate of decrease in weight was 3% or more.)
CC(C)C1CCC(Cc2ccc(Cl)cc2)C1(O)Cn1cncn1 (stereo not drawn) [Comparative Example 13, ipconazole] | X (The average rate of decrease in weight was 3% or more.) | X (The average rate of decrease in weight was 3% or more.) | X (The average rate of decrease in weight was 3% or more.) | X (The average rate of decrease in weight was 3% or more.) | X (The average rate of decrease in weight was 3% or more.) | X (The average rate of decrease in weight was 3% or more.) | X (The average rate of decrease in weight was 3% or more.) | X (The average rate of decrease in weight was 3% or more.) | 2.6 | 3.6 | 2.6 | 3.6 | 3.2 | 3.4 | 3.4 | 3.4 | X (The average rate of decrease in weight was 3% or more.) | X (The average rate of decrease in weight was 3% or more.) | X (The average rate of decrease in weight was 3% or more.) | X (The average rate of decrease in weight was 3% or more.) | average rate of decrease in weight ([6]; treated amount 25 g/m^3): X (The average rate of decrease in weight was 3% or more.); average rate of decrease in weight ([6]; treated amount 50 g/m^3): X (The average rate of decrease in weight was 3% or more.); average rate of decrease in weight ([6]; treated amount 100 g/m^3): X (The average rate of decrease in weight was 3% or more.); average rate of decrease in weight ([6]; treated amount 150 g/m^3): X (The average rate of decrease in weight was 3% or more.)
